Experimental data reported in paper doi:10.1101/2020.03.14.989954.

Target: T1, FLAG-HA(FH)-LZTR1 (UniProt Q8N653)
T1 sequence: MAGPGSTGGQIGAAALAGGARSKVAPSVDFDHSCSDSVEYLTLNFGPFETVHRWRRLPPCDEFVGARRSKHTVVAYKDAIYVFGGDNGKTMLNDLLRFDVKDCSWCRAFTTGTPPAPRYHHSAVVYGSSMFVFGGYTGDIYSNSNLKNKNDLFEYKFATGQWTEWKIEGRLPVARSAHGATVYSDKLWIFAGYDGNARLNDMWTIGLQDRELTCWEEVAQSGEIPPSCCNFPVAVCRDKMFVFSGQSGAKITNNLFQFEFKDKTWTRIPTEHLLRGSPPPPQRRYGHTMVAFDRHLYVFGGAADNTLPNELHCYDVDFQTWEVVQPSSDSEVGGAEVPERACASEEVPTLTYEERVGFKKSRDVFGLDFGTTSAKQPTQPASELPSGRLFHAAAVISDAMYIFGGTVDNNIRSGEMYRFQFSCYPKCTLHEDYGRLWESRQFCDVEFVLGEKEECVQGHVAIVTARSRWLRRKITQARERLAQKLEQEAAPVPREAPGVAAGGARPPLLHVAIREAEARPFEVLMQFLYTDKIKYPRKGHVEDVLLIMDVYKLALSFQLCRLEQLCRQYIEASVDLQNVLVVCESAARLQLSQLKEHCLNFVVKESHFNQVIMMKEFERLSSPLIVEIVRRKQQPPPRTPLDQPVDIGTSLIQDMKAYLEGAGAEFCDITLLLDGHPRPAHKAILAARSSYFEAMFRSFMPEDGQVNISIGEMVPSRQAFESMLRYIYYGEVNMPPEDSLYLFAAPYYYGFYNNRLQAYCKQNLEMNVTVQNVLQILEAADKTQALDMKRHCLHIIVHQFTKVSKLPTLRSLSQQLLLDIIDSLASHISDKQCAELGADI
Test: affinity purification with mass spectrometry

binding: binds
Substance: endogenous RIT1 (293T) (from UniProt Q92963 1-219)

No constants are given. Whether binding was seen depends on the method and setting. In cells and extracts the contact can be indirect. These calls come from enrichment with a bait or labelling near it, and not all partners need be listed. Tags and fused reporters may be left off the sequences shown.
